Reference: paper PMC3585135
Results are given in words; binding and its absence hold for the method and conditions named. For part of these data: Binding seen in cells or lysates may run through a third protein. Some entries that bind do so weakly or less than the wild type. For part of these data: Where a sequence is shown, tags or fusion partners need not be part of it.

Protein sequences, listed by entry. Tags and fused reporters are not part of them.
UniProt P63279: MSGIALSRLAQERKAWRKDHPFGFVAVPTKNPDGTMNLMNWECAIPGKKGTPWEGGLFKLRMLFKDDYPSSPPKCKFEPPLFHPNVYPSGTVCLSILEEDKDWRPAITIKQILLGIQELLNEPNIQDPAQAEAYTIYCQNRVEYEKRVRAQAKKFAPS
UniProt Q16665: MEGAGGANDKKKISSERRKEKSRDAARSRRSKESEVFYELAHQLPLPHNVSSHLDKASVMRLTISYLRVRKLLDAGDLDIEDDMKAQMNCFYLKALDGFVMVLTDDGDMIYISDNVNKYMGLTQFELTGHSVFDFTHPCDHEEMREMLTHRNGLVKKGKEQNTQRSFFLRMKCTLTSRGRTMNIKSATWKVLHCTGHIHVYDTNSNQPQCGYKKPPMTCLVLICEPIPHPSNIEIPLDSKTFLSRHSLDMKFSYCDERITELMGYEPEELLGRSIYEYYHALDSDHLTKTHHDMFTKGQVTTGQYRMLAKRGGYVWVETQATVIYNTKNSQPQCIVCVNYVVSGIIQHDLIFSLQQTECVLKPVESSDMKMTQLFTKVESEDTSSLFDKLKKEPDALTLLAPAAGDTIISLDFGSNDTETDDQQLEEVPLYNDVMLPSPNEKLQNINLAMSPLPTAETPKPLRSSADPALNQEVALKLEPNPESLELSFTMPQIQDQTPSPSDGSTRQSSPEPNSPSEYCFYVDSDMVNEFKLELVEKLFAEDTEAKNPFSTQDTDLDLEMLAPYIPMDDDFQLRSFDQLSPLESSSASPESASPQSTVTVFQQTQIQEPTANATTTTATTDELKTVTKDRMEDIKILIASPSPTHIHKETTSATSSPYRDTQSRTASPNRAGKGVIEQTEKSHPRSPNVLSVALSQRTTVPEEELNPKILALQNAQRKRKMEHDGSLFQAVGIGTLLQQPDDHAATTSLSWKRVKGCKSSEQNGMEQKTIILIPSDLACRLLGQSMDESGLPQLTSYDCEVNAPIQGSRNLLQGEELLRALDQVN
UniProt P25963: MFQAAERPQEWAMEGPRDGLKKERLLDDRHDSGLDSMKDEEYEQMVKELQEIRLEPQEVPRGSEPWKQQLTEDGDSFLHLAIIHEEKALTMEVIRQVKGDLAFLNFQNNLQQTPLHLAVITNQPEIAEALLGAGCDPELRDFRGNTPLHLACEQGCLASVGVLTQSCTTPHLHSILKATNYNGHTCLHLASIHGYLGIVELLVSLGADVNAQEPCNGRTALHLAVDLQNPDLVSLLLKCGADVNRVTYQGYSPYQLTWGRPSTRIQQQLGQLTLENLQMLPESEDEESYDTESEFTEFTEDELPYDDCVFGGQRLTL

Assays:
GST-Ubc9 = GST-Ubc9 (UniProt P63279); test: pull-down; 3 µg GST or GST-Ubc9 immobilised on Sepharose beads, 1 µg recombinant RSUME195 or RSUME267, 1 h at 4°C in GST-binding buffer (20 mM Tris-HCl pH 7.4, 100 mM KCl, 2.5 mM CaCl2, 2.5 mM MgCl2, 1 mM DTT, 0.5% NP-40, 1 mM PMSF); Western blot; both purified
Flag-HIF-1alpha = Flag-HIF-1alpha (UniProt Q16665); test: co-IP; COS-7 cells co-transfected with 500 ng V5-RSUME isoform and 500 ng IκBα or HIF-1alpha vector; hypoxia 16 h only for HIF-1alpha; modified RIPA lysate; immunoprecipitated with anti-Flag, blotted with anti-V5 or anti-Flag
Flag-IκBα = Flag-IκBα (UniProt P25963); test: as above

Binder | binding (GST-Ubc9) | binding (Flag-HIF-1alpha) | binding (Flag-IκBα)
V5-RSUME195 (protein, UniProt Q9Y3V2-2 1-195) MAEPVQEELSVLAAIFCRPHEWEVLSRSETDGTVFRIHTKAEGFMDVDIPLELVFHLPVNYPSCLPGISINSEQLTRAQCVTVKENLLEQAESLLSEPMVHELVLWIQQNLRHILSQPETGSGSEKCTFSTSTTMDDGLWITLLHLDHMRAKTKYVKIVEKWASDLRLTGRLMFMGKIILILLQGDRNNLKVPKS | – | binds | binds
V5-RSUME267 (protein, UniProt Q9Y3V2-1 1-267) MAEPVQEELSVLAAIFCRPHEWEVLSRSETDGTVFRIHTKAEGFMDVDIPLELVFHLPVNYPSCLPGISINSEQLTRAQCVTVKENLLEQAESLLSEPMVHELVLWIQQNLRHILSQPETGSGSEKCTFSTSTTMDDGLWITLLHLDHMRAKTKYVKIVEKWASDLRLTGRLMFMGKIILILLQGDRNNLKEYLILQKTSKVDVDSSGKKCKEKMISVLFETKVQTEHKRFLAFEVKEYSALDELQKEFETAGLKKLFSEFVLALVK | – | binds | binds

More lines, now with the values ahead:

binding (GST-Ubc9) | binding (Flag-HIF-1alpha) | binding (Flag-IκBα) | Binder
binds | – | – | recombinant RSUME195 (protein, UniProt Q9Y3V2-2 1-195) MAEPVQEELSVLAAIFCRPHEWEVLSRSETDGTVFRIHTKAEGFMDVDIPLELVFHLPVNYPSCLPGISINSEQLTRAQCVTVKENLLEQAESLLSEPMVHELVLWIQQNLRHILSQPETGSGSEKCTFSTSTTMDDGLWITLLHLDHMRAKTKYVKIVEKWASDLRLTGRLMFMGKIILILLQGDRNNLKVPKS
binds | – | – | recombinant RSUME267 (protein, UniProt Q9Y3V2-1 1-267) MAEPVQEELSVLAAIFCRPHEWEVLSRSETDGTVFRIHTKAEGFMDVDIPLELVFHLPVNYPSCLPGISINSEQLTRAQCVTVKENLLEQAESLLSEPMVHELVLWIQQNLRHILSQPETGSGSEKCTFSTSTTMDDGLWITLLHLDHMRAKTKYVKIVEKWASDLRLTGRLMFMGKIILILLQGDRNNLKEYLILQKTSKVDVDSSGKKCKEKMISVLFETKVQTEHKRFLAFEVKEYSALDELQKEFETAGLKKLFSEFVLALVK
